In US20230250200A1, “IMPROVED CATALYSTS FOR INTERMOLECULAR CYCLOADDITION” ([…] PATENTS INC., priority 2022, published 2023):

Assay: Cycloaddition of butadiene with ethylene in 2 L autoclave, GC analysis of filtrate
[1] = Comparative Example 1, catalyst solution of Example 3, 80° C., 3 hours, ethylene 400 psig
[2] = 100 mg catalyst (Example 9), 60° C., 7.3 hours at 400 psig, 15.5 hours isolated, 1.2 hours at 400 psig
[3] = 416 mg catalyst (Example 8) in toluene, 60° C., 5 hours, ethylene 400 psig
[4] = catalyst solution of Example 7, 80° C., 5 hours, ethylene 365 psig
[5] = second batch, 300 mg catalyst, 60° C., 6.8 hours at 400 psig, 16 hours isolated, 1.2 hours at 400 psig
[6] = second batch, 600 mg catalyst, 60° C., 75 minutes, ethylene 400 psig

Compound | cis-1,4-hexadiene in filtrate (GC) [1] | vinylcyclobutane in filtrate (GC) [1] | vinylcyclobutane to cis-1,4-hexadiene ratio (Comparative Example 1, catalyst solution of Example 3, 80° C., 3 hours, ethylene 400 psig, ratio to 1) | cis-1,4-hexadiene in filtrate (GC) [2] | vinylcyclobutane in filtrate (GC) [2] | cis-1,4-hexadiene in filtrate (GC) [3] | vinylcyclobutane in filtrate (GC) [3] | cis-1,4-hexadiene in filtrate (GC) [4] | vinylcyclobutane in filtrate (GC) [4] | cis-1,4-hexadiene in filtrate (GC) [5] | vinylcyclobutane in filtrate (GC) [5] | cis-1,4-hexadiene in filtrate (GC) [6] | vinylcyclobutane in filtrate (GC) [6]
C=CC=C.CC(=Nc1c(C)cccc1C)c1cccc(C(C)=Nc2c(C)cccc2C)n1.[Fe] [Catalyst 1, [2,6-Bis(1-(2,6-dimethylphenylimino)ethyl)pyridine] iron butadiene, reference compound] | 2.13 wt % | 77.66 wt % | 36.5 | – | – | – | – | – | – | – | – | – | –
C=CC=C.CCCCC(=Nc1c(C)cccc1C)c1cccc(C(CCCC)=Nc2c(C)cccc2C)n1.[Fe] [Catalyst 3, [2,6-Bis(1-(2,6-dimethylphenylimino)pentyl)pyridine] iron butadiene] | – | – | – | 0.21 wt % | 80.34 wt % | 0.49 wt % | 83.02 wt % | 1.33 wt % | 82.57 wt % | 0.26 wt % | 61.30 wt % | 0.26 wt % | 61.30 wt %
